From ChEMBL document CHEMBL3988442, “University of Dundee, Small-Polar-MMV Screening Library” (2021).

The filed quantity is “Percent Effect” (%). The record does not define 0% and 100%; most values in the screen are far below 50% and negative numbers occur (in some assays of this library far below -100). The compounds are a random part of those screened. Two or more numbers in one place are separate tests of the same structure; such repeats can differ widely.

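Viability assay of Plasmodium falciparum sporozoites; the read-out is not stated. The concentration is filed as 10 mM, unlikely as a test dose, so the dose is not known. The record gives no direction; compounds that gave an IC50 in retests scored well above the rest, so higher reads as lower viability. Strong results were mostly tested again. Size under these conditions: about 34,000 compounds, about 280 of them at 50% or above in at least one test.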

* Cc1csc(N2CCN(CC(=O)Nc3ccncc3)CC2C)n1 (centres unmarked) | -12.6%
* Cc1cc(-c2nn(C)c(Cl)c2CN2CCOCC(O)C2)no1 (centres unmarked) | 6.549%
* COCCN1CCn2cc(CN(C)Cc3ccco3)nc2C1 | 4.948%
* CC(C)(C)C(=O)NCCc1ccn(-c2ccccc2)n1 | 21.48%
* CCOc1ncccc1NC(=O)NCC(O)c1ccc(OC)cc1 (centres unmarked) | 3.056%
* COCC(=O)N1CCC(=O)N(C2CCCC2)Cc2cc(F)ccc21 | 14.99%
* O=c1c(CN2CCSCC2)coc(O)c1CN1CCCC1 | -1.374%
* Cc1c(Cl)c(CN2CCCC2Cn2cncn2)nc2ccccc12 (centres unmarked) | 6.941% & 1.561% & -3.689%
* CC[C@@H]1N(Cc2cccnc2)CCC[C@]12CCC(=O)N2C.O=C(O)C(F)(F)F.O=C(O)C(F)(F)F | -2.527%
* Cc1ccc(N2CC3(COCCN(Cc4cccnc4)C3)OCC2=O)s1.O=C(O)C(F)(F)F.O=C(O)C(F)(F)F (centres unmarked) | -6.145%
* [H][C@]12CN(CC3CC3)C(=O)[C@@]1([H])CN(S(C)(=O)=O)C2 | 8.319%
* Cc1cc(-c2cnc(N3CCNC(=O)C3)nc2-c2ccoc2C)on1 | 4.04%
* Cc1n[nH]c(C)c1C1CCCN1C(=O)NCC(=O)NC(C)(C)C (centres unmarked) | -13.81%
* Cn1cnnc1C1CCCN(C(=O)NCc2ccccn2)C1 (centres unmarked) | 10.13%
* [H][C@@]12CCN(Cc3ccoc3)[C@]1([H])CC[C@H](C(=O)NCC1CC1)O2 | -2.307%
* O=C(c1cncs1)N1CCc2[nH]nc(Nc3ccccc3)c2C1 | 5.763%
* Cc1csc(CCCNC(C)CC(=O)Nc2ccc(F)cc2)n1 (centres unmarked) | 5.346%
* CC(=O)N1CCCC(c2ccc(N3CCOCC3)cn2)C1 (centres unmarked) | -0.1788%
* Cc1cc2c(cc1CNC(Cc1cccs1)c1nccs1)OCO2.Cl (centres unmarked) | 9.258%
* CNC(=O)C1Cn2ccnc2C2(CCN(Cc3c(C)noc3C)CC2)O1 (centres unmarked) | 2.148%
* COc1ccc(C2CNCCN2C(=O)c2cccc3ncccc23)cc1 (centres unmarked) | 4.068%
* COc1c(CNC2CCCc3ccccc32)c(C(C)C)nn1C (centres unmarked) | 38.74% & 38.66% & 36.51%
* Cc1nc(CN2CCCC(N(C)Cc3nccn3C)C2)no1 (centres unmarked) | 12.22%
* COCC(=O)N1CCC2(CC1)CN(CC1CC1)c1ccc(F)cc12 | -6.245%
* CC(C)(C)n1ncc2c(=O)n(CC(=O)NCc3ccco3)cnc21 | 21.94% & -3.81%
* Cc1nn(C)c(Cl)c1C1CCCN1Cc1cccc(C(N)=O)c1 (centres unmarked) | 5.291%
* CC(c1nc(C2CC2)no1)N1CCN(c2ccc(C#N)cn2)CC1 (centres unmarked) | -10.71%
* Cc1cccc(CN2CCC3(CCN(c4ccccn4)C3)C2=O)c1.O=C(O)C(F)(F)F (centres unmarked) | 5.012%
* Cc1cc(C)n(C2CCCN(C(=O)c3cnc4onc(C)c4c3)C2)n1 (centres unmarked) | 17.57%
* CN(C)C(=O)COCc1cncc2c1CCN(Cc1nccn1C)C2 | -8.07%
* C[C@@H]1CN(CCC(=O)NCc2ccccc2Cl)C[C@@]1(O)C1CC1 | 17.54%
* CCOCC(=O)N1CCC(c2nccn2Cc2cscn2)CC1 | -8.158%
* O=C(CCc1nccs1)N1CCCC(N2CCNC2=O)C1 (centres unmarked) | 15.7%
* O=C(O)C(F)(F)F.[H][C@]12CC[C@@]3(N=C(CC)N(C)C3=O)[C@@]1([H])CN(Cc1ccc(C)cc1)C2 | 13.37%
* CC(C)c1noc(CN2CCN(C(=O)c3cccc(F)c3)CC2)n1 | 4.939%
* O=C(O)C(F)(F)F.[H][C@@]12CN(Cc3cc(C)cc(C)c3)C[C@]1([H])OCCN2CC(=O)N(C)C | 1.926%
* Cc1nc2cc(F)ccc2cc1C(=O)N1CCN(CC(C)O)CC1 (centres unmarked) | 5.818%
* Cc1cc(C)nc(N2CCOC(C)(C(=O)N(C)C)C2)n1 (centres unmarked) | 15.55%
* CN(C)C(=O)C1CCC2(CCN(C(=O)Nc3ccc(F)cc3)CC2)O1 (centres unmarked) | 6.245%
* Cc1nccn1-c1cc(CNC(=O)C2CCCO2)ccn1 (centres unmarked) | 0.9874%
* Cn1ccc2c(C(=O)N3CCCC(c4nnc[nH]4)C3)cccc21 (centres unmarked) | 14.31%
* COc1ccc(-n2ccc(C(=O)NCCn3ccnc3)n2)cc1 | -4.578%
* CCN(C(c1cccnc1)c1ccc2c(c1)CCO2)S(C)(=O)=O (centres unmarked) | -6.268%
* Cc1noc(CCNC(=O)NCC(=O)NCc2ccccc2)n1 | -6.842%
* CCn1cc(NC(=O)NCC2(N3CCOCC3)CCSC2)cn1 (centres unmarked) | -1.294%
* CC(C)C(O)C(=O)N1CCC2(CC1)c1nc[nH]c1CCN2S(C)(=O)=O (centres unmarked) | -15.27% & -7.143%
* CN(Cc1ccc(Br)s1)Cn1nc(-c2ccc(F)cc2)oc1=O | -2.781%
* Cc1noc(-c2c[nH]nc2C2CCCN2C(=O)c2ccccc2)c1C (centres unmarked) | 15.24%
* CN(C)C(=O)CNC(=O)c1ccc(Cl)cc1F | -20.18%
* CCOc1ccccc1CNC(=O)NCC(c1cnn(C)c1)N(C)C (centres unmarked) | 3.893%
* Cn1cc(C2CCCN2Cc2csc(Cc3ccccc3)n2)cn1 (centres unmarked) | 7.723%

The last 3 entries again:

structure,effect
CN(C)C(=O)CNC(=O)c1ccc(Cl)cc1F,-20.18
CCOc1ccccc1CNC(=O)NCC(c1cnn(C)c1)N(C)C (centres unmarked),3.893
Cn1cc(C2CCCN2Cc2csc(Cc3ccccc3)n2)cn1 (centres unmarked),7.723